This passage reports binding results from article PMC10308680 (Journal of Biomedical Science, 2023).

Sequences of proteins named here, by UniProt entry; tags and fusion partners are left off. Residues count along the entry.
UniProt P10747, residues 19-220: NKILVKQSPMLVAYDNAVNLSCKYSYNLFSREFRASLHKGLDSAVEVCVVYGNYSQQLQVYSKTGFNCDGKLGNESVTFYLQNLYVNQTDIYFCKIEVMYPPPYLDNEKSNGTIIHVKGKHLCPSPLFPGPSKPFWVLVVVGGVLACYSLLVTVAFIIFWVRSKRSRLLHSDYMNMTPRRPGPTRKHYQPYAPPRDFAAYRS

The target of the assay is CD28/GFP fusion protein (human) (UniProt P10747). As to the kind of experiment: flow cytometry on cells. In general terms: Flow cytometry measures light scatter and fluorescence of single cells or particles in a stream.

No constants are given. Whether binding was seen depends on the method and setting. Some entries that bind do so weakly or less than the wild type.

In the case of ASPMLVAYDA (D-Ala at both termini (first and last residue)) [p2TA, CD28 dimer interface mimetic octapeptide, with D-Ala at both termini], the binding entry was “binds”.
